Results are given in words; binding and its absence hold for the method and conditions named. Binding calls can cover weak binding; strength is not graded here.
How the values were obtained:
S210A DegP (E. coli) [1] = biological target: T1, S210A DegP (E. coli) (UniProt P0C0V0); test: cryo-EM structure
T1 sequence: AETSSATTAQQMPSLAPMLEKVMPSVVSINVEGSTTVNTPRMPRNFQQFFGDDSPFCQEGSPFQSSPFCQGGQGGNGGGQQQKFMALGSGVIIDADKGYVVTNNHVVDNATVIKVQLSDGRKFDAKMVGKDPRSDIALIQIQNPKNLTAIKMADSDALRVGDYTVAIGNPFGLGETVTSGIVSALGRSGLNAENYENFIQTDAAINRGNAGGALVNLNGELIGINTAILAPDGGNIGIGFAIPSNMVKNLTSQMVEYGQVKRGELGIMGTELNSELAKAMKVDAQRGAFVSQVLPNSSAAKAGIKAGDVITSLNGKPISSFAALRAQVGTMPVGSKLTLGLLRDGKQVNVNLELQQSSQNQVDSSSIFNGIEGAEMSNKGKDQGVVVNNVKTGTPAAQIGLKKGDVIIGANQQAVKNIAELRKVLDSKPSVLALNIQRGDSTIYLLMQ

S210A DegP (E. coli) [2] = biological target: T1, S210A DegP (E. coli); test: dynamic light scattering

Substance: DNA binding domain of the human telomere repeat binding factor (hTRF1) (domain or fragment)
- binding (S210A DegP (E. coli) [1]): binds
- binding (S210A DegP (E. coli) [2]): binds

— article doi:10.1101/2022.10.17.512556 (bioRxiv, 2022)
